According to patent publication US8686126B2, “HBV drug resistance methods” (priority 2002, dated 2014):
At least one structure is not confirmed: it was looked up by name or label, or the drawing left a doubt.

Experiments:
[1] = system: HBsAg; test: Serum levels of HBsAg by modified Laurell electrophoresis in HBV-infected patient No. 7; type: in vivo; settings: after 4 months of lamivudine treatment; 1.19 μg/mL at the beginning
Description: HBsAg, anti-HBs, HBeAg, anti-HBe, and anti-HCV were determined by the microparticle enzyme-immunoassay ([…]) method (Abbott Laboratories, North Chicago, Ill., US). Anti-HDV enzyme-immunoassay method was performed as per the methodology supplied by the manufacturer (Abbott Laboratories, North Chicago, Ill., US). Serum levels of HBsAg were determined by a modified Laurell electrophoresis system (Gerlich et al., 1975). HBV-DNA levels were tested by using a commercial liquid-hybridization assay (Digene, Maryland, US), with the lower limit of detection of this assay 5 pg/mL of viral DNA.
The HBsAg level of the patient was 1.19 μg/mL at the beginning of the lamivudine treatment and became undetectable after 4 months.

[2] = ALT (alanine amino-transferase) levels in serum of HBV-infected patient No. 7; type: in vivo, human
[3] = system: HBV; test: HBV DNA levels in serum of HBV-infected patient No. 7 (liquid-hybridization assay, Digene); type: in vivo, human
[4] = after cessation of lamivudine treatment
[5] = during treatment, one patient (IFN 5 MU/TIW; lamivudine 150 mg/day; lamivudine plus IFN 9 MU/TIW)
[6] = lamivudine re-treatment, re-started 8 months after stopping antiviral medications

Compound: Nc1ccn([C@@H]2CS[C@H](CO)O2)c(=O)n1 [lamivudine, beta-L-(−)-2′,3′-dideoxy-3′-thiacytidine]
- HBsAg level [1]: undetectable
- ALT after cessation of treatment [2, 4]: ALT flare
- ALT / liver enzyme response [2, 5]: normalization of ALT
- ALT levels [2, 6]: significant decrease
- HBV DNA replication after cessation of treatment [3, 4]: increase in HBV DNA replication
- virological response / HBV replication [3, 5]: replication inhibition of HBV
- HBV DNA levels [3, 6]: did not show any change
